This experiment in a line: qHTS Assay for Modulators of Lamin A Splicing. The settings on record: HeLa LMNA splicing GFP/RFP minigene ratio, 48 h. Put shortly:
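Read-out is the ratio of GFP to DsRed2 object intensity, acquired by 488 nm laser-scanning cytometry on HeLa lamin A-EGFP minigene reporter cells. Compound incubation 48 hrs at 37 °C in Opti-MEM with 2% FBS; DMSO 0.5% final.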
On the technique in general: Quantitative high-throughput screening tests each substance at several concentrations.

Setting [1] is: measured here: GFP splicing reporter channel.
Setting [2] is: measured here: RFP viability control channel.

The structures appear in SMILES notation. The list shows a part of the results. Shown are side measurements of this screen, not its main read-out; they come without a call. Most of these compounds were active or inconclusive in the main read-out, so they are no random draw. Potencies come from curve fits of mixed quality, noted in brackets.

For orientation: AC50 means the concentration giving half of the maximal activity seen. In the case of `CCC(=O)NC(=S)Nc1ccc(NC(=O)c2ccc([N+](=O)[O-])cc2)cc1`, the concentration at half-maximal activity (AC50) by setting is: under setting [1], 25.1 µM [rising, single point]; under setting [2], 31.6 µM [rising, single point].

In the case of `O=C(NCc1cccs1)c1cccnc1SCCS(=O)(=O)c1ccc(C(F)(F)F)cn1`, under setting [2], the AC50 was 35.5 µM [falling, partial curve, poor fit].

As to `CCOc1ccc(Nc2oc(Cc3ccccc3)nc2C#N)cc1`, the AC50 under setting [2] is 14.1 µM [rising, single point].

For the compound `CCOC(CCn1c(SCc2cccc([N+](=O)[O-])c2)nc2ccccc2c1=O)OCC`, the concentration at half-maximal activity (AC50) is 12.6 µM [rising, single point] under setting [1] and 14.1 µM [rising, partial curve] under setting [2].

As to `Cc1cc2oc(=O)cc(CN3CCN(S(=O)(=O)c4ccc5c(c4)OCCO5)CC3)c2cc1C`, the half-maximal activity concentration (AC50) under setting [1] was 4.47 µM [rising, single point] and the AC50 under setting [2] was 5.62 µM [rising, single point].

Take `N#CC(C#N)=C1C=C2C=C(N3CCOCC3)CCC2CC1` (stereo not drawn): the AC50 under setting [1] is 0.891 µM [falling, full curve] and the concentration at half-maximal activity (AC50) under setting [2] was 0.891 µM [falling, full curve].

As for `C=CCNC(=O)CC(=O)N/N=C/c1cccc(C)c1`, the AC50 under setting [2] was 0.2 µM [rising, full curve, poor fit].

In the case of `O=[N+]([O-])c1ccc(N2CCN(S(=O)(=O)c3ccc(Cl)c(Cl)c3)CC2)cc1NCCN1CCOCC1`, the AC50 under setting [2] was 6.31 µM [falling, single point].

For the compound `O=C(CCN1C(=O)/C(=C/c2cccs2)SC1=S)Nc1ccccn1`, the half-maximal activity concentration (AC50) under setting [2] is 35.5 µM [falling, single point].

With `Nc1cc(C(F)(F)F)ccc1N1CCOCC1`, under setting [2], the AC50 was 2.82 µM [falling, single point].

On to `CCN(c1ccccc1)S(=O)(=O)c1cc(NC(=O)Nc2ccccc2C#N)ccc1Cl`, for which the AC50 under setting [2] was 6.31 µM [rising, partial curve, poor fit].

Consider `CCc1nn(-c2cc(Cl)ccc2OC)c2c1C(=O)CCC2`, for which, under setting [2], the AC50 is 31.6 µM [rising, single point].

As to `Cc1cc(C(=O)N2CCN(c3ccc([N+](=O)[O-])cc3)CC2)no1`, the concentration at half-maximal activity (AC50) under setting [1] is 0.0355 µM [rising, full curve, poor fit].

`Cc1csc(SCc2ccccc2C(=O)O)n1`: under setting [2], the AC50 was 5.62 µM [rising, single point].

Take `O=C(O)[C@@H]1CCCN1`: the concentration at half-maximal activity (AC50) under setting [1] was 35.5 µM [falling, single point] and the AC50 under setting [2] was 0.2 µM [falling, full curve, poor fit].

Consider `CCOC(=O)c1sc2ccccc2c1S(=O)(=O)N1CCN(c2cc(C)ccc2C)CC1`, for which the AC50 under setting [2] was 11.2 µM [rising, partial curve, poor fit].

On to `Cc1ccc(C(C[N+](=O)[O-])c2c(C)cc3ccccn23)cc1` (stereo not drawn), for which the AC50 reads like this: under setting [1], 11.2 µM [rising, single point]; under setting [2], 12.6 µM [rising, single point].

With `CCOC(=O)N1CCN(S(=O)(=O)c2ccc3c(c2)OCC(=O)N3)CC1`, the AC50 under setting [2] was 35.5 µM [rising, single point].

In the case of `Cn1nc(-c2ccc(C(=O)N3CCN(Cc4ccccc4)CC3)cc2)c2ccccc2c1=O`, the concentration at half-maximal activity (AC50) under setting [2] was 12.6 µM [rising, single point].

In the case of `COc1ccc(OCC(=O)Nc2ccc3nn(-c4ccc(OC)cc4)nc3c2)cc1`, the concentration at half-maximal activity (AC50) under setting [2] was 0.0501 µM [falling, full curve, poor fit].

On to `CCCOC1CCCN(C(=O)c2cc(Cl)c(Cl)cc2C(=O)O)C1` (stereo not drawn), for which the AC50 under setting [1] was 5.01 µM [falling, partial curve, poor fit].

On to `CCCCn1nnc(NC(=O)COc2cc(C)ccc2C(C)C)n1`, for which the concentration at half-maximal activity (AC50) under setting [2] was 1.26 µM [rising, full curve, poor fit].

Take `CCc1c(C)nc(SCC(=O)c2ccc(C)c(C)c2)[nH]c1=O`: the AC50 under setting [2] was 35.5 µM [rising, single point].

For the compound `CC(=O)c1sc(N/N=C\c2ccccc2O)nc1C`, the AC50 under setting [1] is 35.5 µM [falling, single point] and the half-maximal activity concentration (AC50) under setting [2] was 25.1 µM [falling, single point].

Consider `COc1cc(CN(C)CC(=O)c2[nH]c(C)c(C(C)=O)c2C)ccc1OC(F)F`, for which the AC50 under setting [2] was 11.2 µM [rising, single point].

Take `CC(C(=O)NC1CCCc2ccccc21)N1CCN(Cc2ccc3c(c2)OCO3)CC1` (stereo not drawn): the half-maximal activity concentration (AC50) under setting [2] was 5.62 µM [rising, single point].

As to `CNCC/C=C1/c2ccccc2CSc2ccccc21`, the AC50 was 35.5 µM [rising, single point] under setting [1] and 17.8 µM [rising, partial curve, poor fit] under setting [2].

`COc1ccc(-c2nsc3c(SCc4ccccc4)ncnc23)cc1`: the AC50 under setting [1] is 0.01 µM [falling, full curve, poor fit].

On to `OCCn1c(-c2ccc3c(c2)OCO3)csc1=Nc1ccccc1`, for which the AC50 under setting [2] was 11.2 µM [rising, partial curve, poor fit].

`Clc1ccc(-c2nnc(SCc3nc4ccccc4[nH]3)o2)c(Cl)c1`: the AC50 by setting is: under setting [1], 35.5 µM [rising, single point]; under setting [2], 35.5 µM [rising, single point].

Regarding `O=C(OC(C(=O)Nc1cc(Cl)cc(Cl)c1)c1ccccc1)C1=COCCO1` (stereo not drawn), the AC50 is, setting by setting: under setting [1], 11.2 µM [rising, single point]; under setting [2], 8.91 µM [rising, partial curve].

`CCc1ccc(NC(=O)C(C)OC(=O)c2ccc(NS(=O)(=O)c3ccc(C)c([N+](=O)[O-])c3)cc2)cc1` (stereo not drawn): under setting [2], the concentration at half-maximal activity (AC50) is 8.91 µM [rising, partial curve, poor fit].

For the compound `CC(C)C(C)NC(=O)COc1ccc(S(=O)(=O)N2CCOCC2)cc1Cl` (stereo not drawn), the AC50 under setting [1] is 0.316 µM [falling, partial curve].

In the case of `CC(C)(C)NS(=O)(=O)c1ccc(CCC(=O)Nc2cc(Cl)ccc2Oc2ccccc2)cc1`, under setting [2], the AC50 is 31.6 µM [rising, single point].

`COC(=O)N/N=C/c1cc(Cl)cc(Cl)c1OCc1ccccc1`: the concentration at half-maximal activity (AC50) reads like this: under setting [1], 20 µM [rising, single point]; under setting [2], 35.5 µM [rising, partial curve].

Regarding `O=C(CSc1ccc(F)cc1)NCCSc1ccccc1`, the AC50 reads like this: under setting [1], 8.91 µM [falling, partial curve]; under setting [2], 7.94 µM [falling, partial curve].

The values above are taken from PubChem BioAssay AID1487 (National Center for Advancing Translational Sciences (NCATS), 2009).
